Measured data: PubChem BioAssay AID652272 (Drosophila RNAi Screening Center, 2013)

Aim: 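Finding fly genes that regulate Hedgehog signal transduction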 (primary screen)
Cell system: Drosophila clone 8 (Cl8) cells
Knock-down reagent: long dsRNA against Drosophila genes
Detection: 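Plate reader light from a firefly reporter under a ptc promoter fragment that responds to Hedgehog, with Renilla light as transfection reference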
Scale: firefly Hh reporter signal: higher = more ptc reporter light; Renilla reference signal: higher = more Renilla control light
Rule for the call: 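Hit when the z-score averaged over two replicates is under -2 or over +3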
Meaning of the calls: active = hit: reporter lowered or raised; inactive = not a hit
In all, the deposit lists about 21,000 reagents; shown is an unselected part of those that have a named target and a result. Of all reagents, 503 (2.4%) got an active call. 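Raw plate light values, not normalised; calls rest on replicate z-scores that were not deposited; hits include reporter decreases as well as increases.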 No sequences are given here. Not given: the amount of reagent, the time to read-out.

Lip3 [DRSC16727] → firefly Hh reporter signal, replicate 1 = 1.58e5; firefly Hh reporter signal, replicate 2 = 1.22e5; Renilla reference signal, replicate 1 = 4659; Renilla reference signal, replicate 2 = 3200; Call = inactive
Cpr78Ca [DRSC11651] → firefly Hh reporter signal, replicate 1 = 1.49e5; firefly Hh reporter signal, replicate 2 = 1.26e5; Renilla reference signal, replicate 1 = 5027; Renilla reference signal, replicate 2 = 3401; Call = inactive
Acph-1 [DRSC14103] → firefly Hh reporter signal, replicate 1 = 91536; firefly Hh reporter signal, replicate 2 = 97621; Renilla reference signal, replicate 1 = 4048; Renilla reference signal, replicate 2 = 4156; Call = inactive
eIF4G2 [DRSC14207] → firefly Hh reporter signal, replicate 1 = 1.42e5; firefly Hh reporter signal, replicate 2 = 74925; Renilla reference signal, replicate 1 = 5200; Renilla reference signal, replicate 2 = 2867; Call = inactive
AstC-R2 [DRSC10051] → firefly Hh reporter signal, replicate 1 = 1.55e5; Renilla reference signal, replicate 1 = 7718; Renilla reference signal, replicate 2 = 4343; Call = inactive
Pif1A [DRSC12708] → firefly Hh reporter signal, replicate 1 = 1.74e5; Renilla reference signal, replicate 1 = 4455; Call = inactive
Pif1A [DRSC14383] → firefly Hh reporter signal, replicate 1 = 91192; firefly Hh reporter signal, replicate 2 = 1.07e5; Renilla reference signal, replicate 1 = 3577; Renilla reference signal, replicate 2 = 2891; Call = inactive
TwdlY [DRSC19153] → firefly Hh reporter signal, replicate 1 = 7.23e5; firefly Hh reporter signal, replicate 2 = 3.37e5; Renilla reference signal, replicate 1 = 42640; Renilla reference signal, replicate 2 = 8693; Call = inactive
Rpe [DRSC06407] → firefly Hh reporter signal, replicate 1 = 90500; firefly Hh reporter signal, replicate 2 = 62266; Renilla reference signal, replicate 1 = 3508; Renilla reference signal, replicate 2 = 2427; Call = inactive
CR9337 [DRSC03212] → firefly Hh reporter signal, replicate 1 = 66075; firefly Hh reporter signal, replicate 2 = 43283; Renilla reference signal, replicate 1 = 2677; Renilla reference signal, replicate 2 = 2064; Call = inactive
CG15756 [DRSC19721] → firefly Hh reporter signal, replicate 1 = 50898; firefly Hh reporter signal, replicate 2 = 2.26e5; Renilla reference signal, replicate 1 = 1296; Renilla reference signal, replicate 2 = 8244; Call = inactive

In a second layout: entries from further up.
Rpe [DRSC06407]
- firefly Hh reporter signal, replicate 1: 90500
- firefly Hh reporter signal, replicate 2: 62266
- Renilla reference signal, replicate 1: 3508
- Renilla reference signal, replicate 2: 2427
- Call: inactive

CR9337 [DRSC03212]
- firefly Hh reporter signal, replicate 1: 66075
- firefly Hh reporter signal, replicate 2: 43283
- Renilla reference signal, replicate 1: 2677
- Renilla reference signal, replicate 2: 2064
- Call: inactive

Further entries follow.
CG4186 [DRSC11753] → firefly Hh reporter signal, replicate 1 = 1.05e5; firefly Hh reporter signal, replicate 2 = 96987; Renilla reference signal, replicate 1 = 3746; Renilla reference signal, replicate 2 = 2951; Call = inactive
Tbca [DRSC15395] → firefly Hh reporter signal, replicate 1 = 69056; firefly Hh reporter signal, replicate 2 = 56992; Renilla reference signal, replicate 1 = 1701; Renilla reference signal, replicate 2 = 1943; Call = inactive
BckdhB [DRSC21183] → firefly Hh reporter signal, replicate 1 = 87490; firefly Hh reporter signal, replicate 2 = 1.64e5; Renilla reference signal, replicate 1 = 2218; Renilla reference signal, replicate 2 = 7296; Call = inactive
Tango11 [DRSC03890] → firefly Hh reporter signal, replicate 1 = 1.52e5; firefly Hh reporter signal, replicate 2 = 2.48e5; Renilla reference signal, replicate 1 = 3635; Renilla reference signal, replicate 2 = 10672; Call = inactive
Tango11 [DRSC03892] → firefly Hh reporter signal, replicate 1 = 1.20e5; firefly Hh reporter signal, replicate 2 = 1.59e5; Renilla reference signal, replicate 1 = 3200; Renilla reference signal, replicate 2 = 7465; Call = inactive
gny [DRSC02810] → firefly Hh reporter signal, replicate 1 = 83613; firefly Hh reporter signal, replicate 2 = 51192; Renilla reference signal, replicate 1 = 3040; Renilla reference signal, replicate 2 = 2340; Call = inactive
CG8229 [DRSC07114] → firefly Hh reporter signal, replicate 1 = 1.24e5; firefly Hh reporter signal, replicate 2 = 80405; Renilla reference signal, replicate 1 = 4595; Renilla reference signal, replicate 2 = 2972; Call = inactive
Glt [DRSC03333] → firefly Hh reporter signal, replicate 1 = 57410; firefly Hh reporter signal, replicate 2 = 28872; Renilla reference signal, replicate 1 = 2408; Renilla reference signal, replicate 2 = 1252; Call = inactive
Obp83b [DRSC12360] → firefly Hh reporter signal, replicate 1 = 84824; firefly Hh reporter signal, replicate 2 = 80960; Renilla reference signal, replicate 1 = 3595; Renilla reference signal, replicate 2 = 2998; Call = inactive
CG2246 [DRSC15433] → firefly Hh reporter signal, replicate 1 = 2.02e5; firefly Hh reporter signal, replicate 2 = 1.58e5; Renilla reference signal, replicate 1 = 4642; Renilla reference signal, replicate 2 = 3749; Call = inactive
